Here are results for one sequence from publication PMC5506657, “Improvement in phosphate acquisition and utilization by a secretory purple acid phosphatase (OsPAP21b) in rice” (Plant Biotechnology Journal, 2017).

Amino acid sequences for entries named in this document (tags omitted). A change or cut given only in a name is not applied to a line headed by its entry.
UniProt Q6Z156: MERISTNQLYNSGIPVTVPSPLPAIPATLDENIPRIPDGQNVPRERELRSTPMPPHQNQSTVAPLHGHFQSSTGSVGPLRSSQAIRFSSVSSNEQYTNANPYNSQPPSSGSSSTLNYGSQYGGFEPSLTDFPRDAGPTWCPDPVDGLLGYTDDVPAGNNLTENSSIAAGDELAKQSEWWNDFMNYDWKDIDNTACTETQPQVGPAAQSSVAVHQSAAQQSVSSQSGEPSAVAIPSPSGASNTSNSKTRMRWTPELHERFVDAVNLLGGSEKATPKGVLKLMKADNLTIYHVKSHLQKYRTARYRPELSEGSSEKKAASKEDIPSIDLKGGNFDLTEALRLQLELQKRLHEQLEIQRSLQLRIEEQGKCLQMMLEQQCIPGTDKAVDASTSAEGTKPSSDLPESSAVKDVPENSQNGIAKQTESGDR

The target in data set [1] is OsPHR2 (Oryza sativa (rice)) (UniProt Q6Z156). Description: EMSA. The settings on record: 10 ng probe, 1.5 ug protein, 1 ug poly(dI-dC), 1 mM Mg2+; 30 mM KCl, 15 mM HEPES pH 8.0, 0.02 mM DTT, 1 mM MgCl2, 0.2 mM EDTA, 0.6% glycerol, 1 ug poly(dI-dC) in 30 ul; 20 °C, 30 min; 4% gel; recombinant protein; residues 1-426; protein details: 6xHis (pET28a); label: 32P ([alpha-32P]CTP, Megaprime labeling); probe letters rebuilt from the primers and the genome.

For data set [2] the target is unchanged. Description: competition with a labelled probe. The note with it: 400-fold excess unlabelled promoter as self competitor, specificity confirmed; 30 mM KCl, 15 mM HEPES pH 8.0, 0.02 mM DTT, 1 mM MgCl2, 0.2 mM EDTA, 0.6% glycerol, 1 ug poly(dI-dC) in 30 ul; 20 °C, 30 min; 4% gel; recombinant protein; residues 1-426; protein details: 6xHis (pET28a); label: 32P ([alpha-32P]CTP, Megaprime labeling); probe letters rebuilt from the primers and the genome.

As to “AAAAATCCCTGCATCACGCAGCAAAATGCCAACCCCAGCCTACCTATCTCCTTCCTTCCTCCTCCCCACCTCCACCACCACCACCACCGCACACGGCGGCCTCCTCCTCCTCTCCGGCAACCACCGCCGACGATGTCGTCCACGCCACATGCCAGGTGCACGCACGCACGCACGACAGCAAGAGAGAGAGCGGCAAGAAACACCATGGCATATCTCCGAGGATATGCCCTAATCCAAAGTCTTCCTAATTGTTATTAAAATCCTAATGACGTGCAATTATGCTCTCCTCTCCCAGGTCGTCTCCTCCTCCGGGCTCAGCCCAGGCTGGCCACCGATGATGATGGCGACGGCCGCGATGGCGGCGAGCTCGTGCGATCGAGGCGACACGCGTAAGAAGCTGCAGATAACTGTAGTTTTCCTCGT (double strand) [OsPAP21b promoter 423 bp]”, the binding result in data set [1] and in data set [2] was “binds” in each case.
